Results as given in patent publication US20240207207A1, “METHODS FOR MITIGATING AND PREVENTING PROTEOSTASIS-BASED INJURIES” (San Diego State University (SDSU) Foundation, dba San Diego …, priority 2018, published 2024).
For at least one compound, name, drawing or mass did not settle the structure.

Legend:
[1] = system: acute myocardial I/R injury; assay: acute in vivo myocardial ischemia/reperfusion; set-up: species or system mouse
Procedure: In vivo myocardial ischemia/reperfusion. Surgical myocardial I/R was performed as previously described^10. Briefly, mice were anesthetized with 2% isoflurane and a thoracotomy was performed to isolate the heart, after which the left anterior descending coronary artery (LAD) was ligated with a 6-0 Prolene™ suture for 30 minutes, followed by suture removal and either 24 hours or 7 days of reperfusion. Regional ischemia was confirmed by visual inspection of the discoloration of the myocardium distal of the ligation, which is characteristic of impaired blood flow. Animals assigned as shams underwent the thoracotomy surgical procedure, but weren't subjected to LAD ligation. Animals were randomly assigned to trial groups prior to outset of the experiment by a single investigator, while the surgeon and data analyst were blinded to trial assignments. Animals designated to receive either control compound or compound 147 at the time of reperfusion received 2 mg/kg of respective compounds via IV injection 5 minutes prior to release of the ligation. Twenty-four hours after reperfusion, 1% of Evans Blue was injected apically to determine the area at risk (AAR). Hearts were harvested and 1-mm sections of the hearts were stained with 1% 2,3,5-triphenyltetrazolium chloride (TTC) to measure the infarcted area (INF) as previously described^36. The AAR, INF and left ventricle area (LV) from digitized images of heart sections were analyzed using ImageJ software. […] A separate investigator analyzed the AAR, INF, and LV and was blinded to the animal trial assignments. […] Blood was placed in heparin- and EDTA-coated vacutainer (BD Vacutainer) and centrifuged at 3000 rpm for 10 minutes and plasma samples were analyzed for cardiac troponin I with a Mouse cTnI High-Sensitivity ELISA kit (Life Diagnostics, Inc.).
Transthoracic echocardiography. Transthoracic echocardiography was performed using an ultrasound imaging system (Vevo 2100 System™, Fujifilm VisualSonics, Toronto, Ontario, Canada) as described^40. Diastolic function was determined as previously described^33. Briefly, echocardiography coupled with pulse-wave Doppler was used to visualize transmitral flow velocities and were recorded by imaging the mitral orifice at the point of the mitral leaflets. Waveforms were recorded and analyzed for peak early- and late-diastolic transmitral flow velocities corresponding to E and A waves, respectively.
Malondialdehyde assay. Lipid peroxidation was determined by measuring the levels of malondialdehyde (MDA) using a TBARS assay kit (Cayman Chemical, Ann Arbor, MI) according to the manufacturer's instructions as previously described^10. In vivo experimental compound administration. Control compound and compound 147 were suspended to a final concentration of 0.2 mg/mL in 10% DMSO. Mice were weighed prior to administration of compounds and, subsequently, non-anesthetized 10-week old WT or ATF6 cKO mice were injected with ˜250 μL of stock compounds via the lateral tail vein depending upon body mass to ensure accurate administration of 2 mg/kg. […] Since compound 147 and tunicamycin have similar molecular weights, this dose of compound 147 is near the molar equivalent of the typical dose of tunicamycin. It is relevant to note that for compound 147, a dose of 2 mg/kg is similar to FDA-approved cardiovascular drugs, such as many angiotensin-converting enzyme (ACE) inhibitors, which are used in small-animal models at 2 mg/kg^42.

[2] = system: ER associated protein degradation (ERAD); assay: ERAD assay (degradation of TCR-α-HA) in NRVM; type: cell-based, rat
[3] = system: hearts of mice that were not subjected to I/R; assay: 7-day dosing protocols in mice not subjected to I/R: cardiac performance and safety; type: in vivo, mouse; conditions: Trial 2 vs Trial 1, mice without I/R
Procedure: In vivo myocardial ischemia/reperfusion. Surgical myocardial I/R was performed as previously described^10. Briefly, mice were anesthetized with 2% isoflurane and a thoracotomy was performed to isolate the heart, after which the left anterior descending coronary artery (LAD) was ligated with a 6-0 Prolene™ suture for 30 minutes, followed by suture removal and either 24 hours or 7 days of reperfusion. Regional ischemia was confirmed by visual inspection of the discoloration of the myocardium distal of the ligation, which is characteristic of impaired blood flow. Animals assigned as shams underwent the thoracotomy surgical procedure, but weren't subjected to LAD ligation. […] The AAR, INF and left ventricle area (LV) from digitized images of heart sections were analyzed using ImageJ software. […] A separate investigator analyzed the AAR, INF, and LV and was blinded to the animal trial assignments. […] Blood was placed in heparin- and EDTA-coated vacutainer (BD Vacutainer) and centrifuged at 3000 rpm for 10 minutes and plasma samples were analyzed for cardiac troponin I with a Mouse cTnI High-Sensitivity ELISA kit (Life Diagnostics, Inc.).
Hepatic triglyceride assay. […] Briefly, livers were harvested and 10 mg extracts were homogenized and analyzed for triglyceride content using the EnzyChrom Triglyceride Assay Kit™ (BioAssay Systems). […]

lipid peroxidation = assay: malondialdehyde (MDA) assay after in vitro I/R in NRVM; type: cell-based, rat
[4] = female mice, Trials 9 and 10, 24 hours after reperfusion

In the case of `Cc1ccc(O)c(NC(=O)CCc2ccccc2)c1` [compound 147], the “beneficial effects (infarct sizes and plasma cTnI)” value ([1]; ATF6 cKO mice, 24 hours post-I/R) is reported as “not seen”, the infarct sizes [1, 4] is reported as “reduced infarct sizes” and the “plasma cTnI” value [1, 4] is reported as “reduced”. The “plasma cTnI” value ([1]; male mice, 24 h after reperfusion) was “decreased plasma cTnI”, the “infarct size in the heart” value ([1]; male mice, 24 h after reperfusion, 2 mg/kg IV, even when administered only at reperfusion) was “significantly decreased infarct sizes” and the “ERAD, rate of degradation of ectopically expressed TCRα” value ([2]; siAtf6 (knockdown of Atf6)) was “lost upon knockdown of Atf6”. For the same compound, the “ERAD, rate of degradation of ectopically expressed TCRα” value ([2]; siCon, 24 hours treatment prior to cyclohexamide) was “increased ERAD”, the “cardiac performance (fractional shortening)” value [3] was “significantly enhanced cardiac performance” and the “lipid peroxidation (MDA) after I/R” value (lipid peroxidation; siAtf6 (knockdown of Atf6)) was “lost upon knockdown of Atf6”. For the same compound, the “lipid peroxidation (MDA) after I/R” value (lipid peroxidation; siCon) was “decreased lipid peroxidation”.
